# The other results are listed elsewhere or left out. These are further read-outs of the screen, such as a control signal, another cell line or another target. No call is given for them. Compounds called inactive in the main read-out are mostly missing here. Words in brackets tell the shape of the fitted curve; partial curves, single points and poor fits give uncertain potencies.
# Assay: qHTS Assay for Lipid Storage Modulators in Drosophila S3 Cells;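 for cell number change: cells counted by Cell Tracker Red CMTPX staining in the red channel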
# Conditions: BODIPY lipid droplet fluorescence, 18-24 h; for cell number change: measured here: cell count max response, cells fed with added oleic acid
# In short: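 Laser-scanning cytometry quantifies lipid droplet accumulation (500–530 nm total intensity; droplet/cell object ratio) in oleic acid-fed (400 uM added) Drosophila S3 cells treated with a concentration series. 20 uM Triacsin C defined 100% inhibition.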
# [1] = measured here: cell number channel AC50, cells fed with added oleic acid
# [2] = measured here: lipid fluorescence (Fed channel) AC50, cells fed with added oleic acid
Structure (SMILES),cell number change,AC50 [1],AC50 [2]
Cc1ccc(-c2nc(CS(=O)(=O)CC(=O)NCc3cccc(F)c3)c(C)o2)cc1,-13.3%,–,–
CC(CCc1ccccc1)NC(=O)c1ccccc1 (stereo not given),37.7%,"18.4 µM [rising, single point]","25.9 µM [rising, partial curve, poor fit]"
CC(=O)Nc1nc2nc(-c3ccccc3)cc(-c3ccccc3)n2n1,2.97%,"0.00461 µM [falling, full curve, poor fit]","2.06 µM [falling, partial curve, poor fit]"
COc1ccccc1N1CSC2=C(C#N)C(c3ccc(SC)cc3)CC(=O)N2C1 (stereo not given),48.4%,"4.11 µM [rising, partial curve, poor fit]","1.3 µM [rising, partial curve, poor fit]"
O=C(COC(=O)c1ccc2c(c1[N+](=O)[O-])C(=O)c1ccccc1C2=O)NC1CC1,–,–,"23.1 µM [falling, partial curve]"
Cn1nnnc1SCc1nnc(-c2ccccc2Br)o1,12.4%,–,–
CCCc1cc(NC(=O)CCl)n(-c2ccccc2)n1,-35.4%,"16.4 µM [falling, single point]","29.1 µM [falling, single point]"
COc1ccccc1N(C)S(=O)(=O)c1ccc(C(=O)N(CC(N)=O)C(C)C)cc1,5.57%,–,"0.146 µM [rising, full curve, poor fit]"
O=C(CN1CCC(NC(=O)Nc2ccc(F)cc2)CC1)Nc1ccccc1[N+](=O)[O-],-15.3%,–,"6.51 µM [falling, single point]"
CCCCn1c(=S)[nH]c2cc(S(=O)(=O)N3CCCCC3)ccc21,37.3%,"2.31 µM [rising, full curve]","3.26 µM [rising, partial curve]"
COc1ccc(-c2cc(CS(=O)(=O)c3ccccc3)on2)cc1,12%,–,–
COc1cccc(N2C(=O)CC(N3CCN(c4ccc([N+](=O)[O-])cc4)CC3)C2=O)c1 (stereo not given),21.7%,–,"6.51 µM [rising, partial curve, poor fit]"
Cc1ccc(/C=N/NC(=O)c2cccc(NC(=O)c3ccccc3C)c2)o1,-5%,–,"1.16 µM [rising, single point]"
COc1ccc(C(=O)CSc2nn3c(=O)c(C(C)(C)C)nnc3s2)cc1,6.64%,–,"0.0411 µM [falling, full curve, poor fit]"
COC(=O)COc1cccc2c(=O)n(CC(=O)Nc3ccc4c(c3)OCCO4)ccc12,-25.4%,–,"32.6 µM [falling, single point]"
CN(C)S(=O)(=O)c1cccc(NC(=S)NC23CC4CC(CC(C4)C2)C3)c1,-7.69%,–,"0.116 µM [falling, single point]"
O=C(NNC(=O)C1CCN(c2ncccn2)CC1)c1ccc(F)cc1,8.11%,–,"29.1 µM [rising, single point]"
Cn1c(=O)c(Cc2ccccc2)c(O)c2ccccc21,-20.2%,"0.00517 µM [falling, full curve, poor fit]","18.4 µM [falling, partial curve]"
COC(=O)Cc1c(O)ccn(Cc2ccc(OC)c(OC)c2)c1=O,20%,"0.461 µM [falling, single point]",–
O=C(CCN1C(=O)/C(=C/c2ccccc2Cl)SC1=S)NC1CCS(=O)(=O)C1 (stereo not given),9.54%,–,"6.51 µM [falling, single point]"
CCOC(=O)c1[nH]ncc1[C@@H]1C[C@H]2CN(Cc3cccc(Cl)c3)C(=O)[C@]23CCCN13,-1.03%,–,"0.116 µM [rising, full curve, poor fit]"
Cc1nc(NC(=O)C23CC4CC(CC(C4)C2)C3)sc1Cc1ccc2c(c1)OCO2,-8.75%,–,"8.2 µM [falling, partial curve, poor fit]"
COCCNC(=O)CSc1ccccc1C(=O)NC1CCCc2ccccc21 (stereo not given),-3.23%,–,–
CCN(C(=O)CCS(=O)(=O)c1cccc2nsnc12)c1cccc(C)c1,23.3%,–,"2.91 µM [rising, partial curve, poor fit]"
COc1ccc(NC(=O)c2ccco2)cc1NC(=O)c1cccnc1,146%,"18.4 µM [rising, partial curve]","20.6 µM [rising, partial curve]"
Cc1ccc(-c2nnn(CC(=O)N(Cc3cccs3)C(C(=O)NC(C)(C)C)c3ccc(C)o3)n2)o1 (stereo not given),-97.3%,"29.1 µM [falling, single point]","20.6 µM [falling, single point]"

# Molecules listed so far with an NH in an aromatic ring:
Structure (SMILES),cell number change,AC50 [1],AC50 [2]
CCCCn1c(=S)[nH]c2cc(S(=O)(=O)N3CCCCC3)ccc21,37.3%,"2.31 µM [rising, full curve]","3.26 µM [rising, partial curve]"
CCOC(=O)c1[nH]ncc1[C@@H]1C[C@H]2CN(Cc3cccc(Cl)c3)C(=O)[C@]23CCCN13,-1.03%,–,"0.116 µM [rising, full curve, poor fit]"

# Source: PubChem BioAssay AID2685 (National Center for Advancing Translational Sciences (NCATS), 2010)
